Some of the results follow.
What was measured:
Test in all cases: log2 fold change, soluble protein after heating vs DMSO (PISA); higher = thermal stabilisation; K562 cells, 10 uM, 30 min; active = over 0.2 and 3.5 SD of the protein, either way, in both replicates (recomputed)
[1] = compound: CN1CCN(CCOc2cc(OC3CCOCC3)c3c(Nc4c(Cl)ccc5c4OCO5)ncnc3c2)CC1 [saracatinib]
In short: (§1)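 Values are thermal stability changes relative to control samples and are taken from duplicates. They are stated as log2 fold changes. Before quantification by TMTpro 16plex LC-MS/MS with equalised channel sums, K562 cells at 2×10^6 cells/mL were treated with 10 μM compound for 30 min, heated in aliquots for 3 min across 48°C-58°C, pooled, extracted in PBS with 0.5% NP-40 at 4°C, and centrifuged at 21,000xg for 90 min to give the soluble supernatant.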

Sequences of proteins named here, by UniProt entry; tags and fusion partners are left off. A change or cut given only in a name is not applied to a line headed by its entry.
UniProt Q9Y6I9: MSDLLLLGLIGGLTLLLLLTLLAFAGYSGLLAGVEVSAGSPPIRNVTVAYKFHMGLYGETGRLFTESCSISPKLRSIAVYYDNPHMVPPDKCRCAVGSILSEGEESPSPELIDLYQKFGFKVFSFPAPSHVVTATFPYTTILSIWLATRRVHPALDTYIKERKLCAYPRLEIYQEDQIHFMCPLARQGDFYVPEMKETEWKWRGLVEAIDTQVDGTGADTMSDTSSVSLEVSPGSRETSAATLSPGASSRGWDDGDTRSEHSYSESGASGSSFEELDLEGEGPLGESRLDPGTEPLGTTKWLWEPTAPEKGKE
UniProt Q9UPU7: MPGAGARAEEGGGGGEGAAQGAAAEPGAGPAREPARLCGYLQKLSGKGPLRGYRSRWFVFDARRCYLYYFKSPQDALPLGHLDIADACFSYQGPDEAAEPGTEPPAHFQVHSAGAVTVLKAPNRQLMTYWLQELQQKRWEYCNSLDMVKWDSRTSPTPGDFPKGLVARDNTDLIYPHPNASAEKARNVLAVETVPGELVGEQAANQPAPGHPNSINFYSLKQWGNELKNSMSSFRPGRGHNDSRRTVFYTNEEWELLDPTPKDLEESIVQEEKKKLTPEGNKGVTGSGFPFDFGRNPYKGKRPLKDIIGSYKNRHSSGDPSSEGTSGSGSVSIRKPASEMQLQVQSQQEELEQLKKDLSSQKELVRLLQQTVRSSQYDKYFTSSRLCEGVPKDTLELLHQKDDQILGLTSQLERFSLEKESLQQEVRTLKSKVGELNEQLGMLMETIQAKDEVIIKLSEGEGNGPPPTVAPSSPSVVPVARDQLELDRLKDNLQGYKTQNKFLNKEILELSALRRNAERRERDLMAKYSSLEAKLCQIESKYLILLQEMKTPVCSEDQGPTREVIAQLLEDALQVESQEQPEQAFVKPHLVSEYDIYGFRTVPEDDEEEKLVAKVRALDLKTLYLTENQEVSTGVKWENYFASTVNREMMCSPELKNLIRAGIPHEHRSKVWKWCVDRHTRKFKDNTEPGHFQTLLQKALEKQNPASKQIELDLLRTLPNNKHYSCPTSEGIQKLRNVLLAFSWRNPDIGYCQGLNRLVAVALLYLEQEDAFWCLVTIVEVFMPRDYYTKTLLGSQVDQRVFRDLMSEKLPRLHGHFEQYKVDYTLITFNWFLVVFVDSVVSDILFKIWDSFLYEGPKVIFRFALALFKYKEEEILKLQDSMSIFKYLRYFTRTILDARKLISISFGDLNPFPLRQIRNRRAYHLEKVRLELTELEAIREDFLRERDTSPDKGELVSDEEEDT
UniProt Q9NUY8: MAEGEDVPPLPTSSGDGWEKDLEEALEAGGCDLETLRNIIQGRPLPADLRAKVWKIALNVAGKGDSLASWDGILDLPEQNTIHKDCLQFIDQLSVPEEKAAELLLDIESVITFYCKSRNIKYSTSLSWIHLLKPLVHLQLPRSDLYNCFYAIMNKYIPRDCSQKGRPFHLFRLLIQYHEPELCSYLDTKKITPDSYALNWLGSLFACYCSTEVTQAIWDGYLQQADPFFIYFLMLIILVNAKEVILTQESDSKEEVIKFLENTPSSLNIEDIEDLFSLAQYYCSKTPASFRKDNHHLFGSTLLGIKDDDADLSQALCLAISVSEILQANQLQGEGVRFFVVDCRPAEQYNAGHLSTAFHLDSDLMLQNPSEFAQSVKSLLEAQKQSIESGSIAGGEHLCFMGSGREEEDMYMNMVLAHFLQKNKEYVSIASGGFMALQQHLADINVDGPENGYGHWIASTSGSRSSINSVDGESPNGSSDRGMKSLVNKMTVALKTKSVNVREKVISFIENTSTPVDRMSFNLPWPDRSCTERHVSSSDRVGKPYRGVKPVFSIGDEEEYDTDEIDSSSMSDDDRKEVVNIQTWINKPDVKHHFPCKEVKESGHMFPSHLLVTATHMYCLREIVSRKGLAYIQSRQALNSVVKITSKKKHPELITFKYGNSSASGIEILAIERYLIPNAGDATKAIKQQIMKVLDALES
UniProt O75663: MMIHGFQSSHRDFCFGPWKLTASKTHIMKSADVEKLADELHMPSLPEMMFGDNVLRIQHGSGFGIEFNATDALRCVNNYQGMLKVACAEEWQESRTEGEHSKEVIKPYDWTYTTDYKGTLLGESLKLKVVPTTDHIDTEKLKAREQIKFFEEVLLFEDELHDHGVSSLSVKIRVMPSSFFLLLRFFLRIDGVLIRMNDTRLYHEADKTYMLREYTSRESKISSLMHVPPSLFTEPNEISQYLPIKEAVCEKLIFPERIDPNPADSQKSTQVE
UniProt P15884: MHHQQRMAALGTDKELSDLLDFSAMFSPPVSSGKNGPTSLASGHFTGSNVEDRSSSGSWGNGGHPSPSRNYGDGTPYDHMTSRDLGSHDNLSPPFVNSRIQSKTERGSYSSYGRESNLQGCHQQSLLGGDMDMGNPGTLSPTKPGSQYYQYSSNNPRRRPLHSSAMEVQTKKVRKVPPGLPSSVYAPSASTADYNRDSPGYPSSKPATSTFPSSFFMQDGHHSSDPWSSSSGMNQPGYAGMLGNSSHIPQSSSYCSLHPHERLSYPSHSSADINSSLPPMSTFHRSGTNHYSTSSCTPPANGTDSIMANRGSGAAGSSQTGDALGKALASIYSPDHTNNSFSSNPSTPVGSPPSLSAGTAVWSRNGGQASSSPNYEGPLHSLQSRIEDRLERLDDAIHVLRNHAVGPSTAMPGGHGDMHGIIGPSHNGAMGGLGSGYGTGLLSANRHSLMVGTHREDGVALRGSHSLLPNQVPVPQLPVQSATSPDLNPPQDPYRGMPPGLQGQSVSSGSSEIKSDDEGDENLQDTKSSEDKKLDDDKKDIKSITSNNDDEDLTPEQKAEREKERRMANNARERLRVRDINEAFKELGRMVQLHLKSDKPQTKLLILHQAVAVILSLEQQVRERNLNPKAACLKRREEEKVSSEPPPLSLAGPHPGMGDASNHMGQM
UniProt Q01085: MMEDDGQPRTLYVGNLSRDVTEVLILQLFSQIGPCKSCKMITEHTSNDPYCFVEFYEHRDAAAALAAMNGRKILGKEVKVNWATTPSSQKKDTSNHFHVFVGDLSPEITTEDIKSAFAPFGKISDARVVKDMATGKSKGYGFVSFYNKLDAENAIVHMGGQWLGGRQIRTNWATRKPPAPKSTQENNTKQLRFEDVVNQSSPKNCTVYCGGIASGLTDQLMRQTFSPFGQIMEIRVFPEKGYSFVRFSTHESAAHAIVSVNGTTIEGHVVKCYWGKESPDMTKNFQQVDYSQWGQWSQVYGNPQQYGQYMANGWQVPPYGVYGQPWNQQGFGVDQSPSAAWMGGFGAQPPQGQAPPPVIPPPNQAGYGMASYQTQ
UniProt Q8TBR7: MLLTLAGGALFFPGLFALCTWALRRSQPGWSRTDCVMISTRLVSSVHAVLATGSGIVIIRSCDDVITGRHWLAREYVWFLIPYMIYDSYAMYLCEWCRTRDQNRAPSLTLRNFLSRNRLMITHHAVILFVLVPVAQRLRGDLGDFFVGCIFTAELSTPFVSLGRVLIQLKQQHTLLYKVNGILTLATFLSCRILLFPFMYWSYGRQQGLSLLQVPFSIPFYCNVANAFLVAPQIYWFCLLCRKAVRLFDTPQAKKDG
UniProt Q9Y5L4: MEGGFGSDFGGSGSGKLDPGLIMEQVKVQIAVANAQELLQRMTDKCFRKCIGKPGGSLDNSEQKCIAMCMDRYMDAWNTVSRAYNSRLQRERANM
UniProt P04183: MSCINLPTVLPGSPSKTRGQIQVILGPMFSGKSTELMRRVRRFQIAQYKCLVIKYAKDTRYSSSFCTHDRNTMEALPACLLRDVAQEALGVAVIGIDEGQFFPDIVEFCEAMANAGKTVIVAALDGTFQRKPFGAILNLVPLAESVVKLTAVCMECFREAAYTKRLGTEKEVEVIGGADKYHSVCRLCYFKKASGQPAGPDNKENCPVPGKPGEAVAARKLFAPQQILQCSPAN
UniProt P36897: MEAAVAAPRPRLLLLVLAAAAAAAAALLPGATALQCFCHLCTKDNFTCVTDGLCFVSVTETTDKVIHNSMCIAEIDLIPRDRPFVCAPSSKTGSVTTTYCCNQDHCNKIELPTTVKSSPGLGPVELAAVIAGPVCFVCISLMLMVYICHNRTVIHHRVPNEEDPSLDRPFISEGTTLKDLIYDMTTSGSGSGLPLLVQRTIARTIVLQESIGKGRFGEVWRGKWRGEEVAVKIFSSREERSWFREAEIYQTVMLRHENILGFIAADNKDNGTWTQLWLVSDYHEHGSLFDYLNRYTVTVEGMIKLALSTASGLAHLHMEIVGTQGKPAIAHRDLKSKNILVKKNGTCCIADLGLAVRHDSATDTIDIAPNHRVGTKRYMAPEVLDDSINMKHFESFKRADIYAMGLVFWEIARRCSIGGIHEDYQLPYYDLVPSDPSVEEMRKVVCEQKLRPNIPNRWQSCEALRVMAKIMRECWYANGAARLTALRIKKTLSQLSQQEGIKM
UniProt Q9NYB0: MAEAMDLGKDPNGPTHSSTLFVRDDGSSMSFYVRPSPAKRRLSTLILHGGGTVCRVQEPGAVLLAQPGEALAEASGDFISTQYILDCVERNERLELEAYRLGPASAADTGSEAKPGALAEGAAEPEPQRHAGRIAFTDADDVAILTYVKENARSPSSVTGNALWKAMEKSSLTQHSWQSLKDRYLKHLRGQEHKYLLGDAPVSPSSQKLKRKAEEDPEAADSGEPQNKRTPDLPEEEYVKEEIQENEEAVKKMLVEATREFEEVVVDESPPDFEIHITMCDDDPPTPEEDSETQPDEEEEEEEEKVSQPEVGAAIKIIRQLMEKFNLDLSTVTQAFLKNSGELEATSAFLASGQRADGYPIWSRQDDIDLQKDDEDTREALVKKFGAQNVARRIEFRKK
UniProt Q5VWP2: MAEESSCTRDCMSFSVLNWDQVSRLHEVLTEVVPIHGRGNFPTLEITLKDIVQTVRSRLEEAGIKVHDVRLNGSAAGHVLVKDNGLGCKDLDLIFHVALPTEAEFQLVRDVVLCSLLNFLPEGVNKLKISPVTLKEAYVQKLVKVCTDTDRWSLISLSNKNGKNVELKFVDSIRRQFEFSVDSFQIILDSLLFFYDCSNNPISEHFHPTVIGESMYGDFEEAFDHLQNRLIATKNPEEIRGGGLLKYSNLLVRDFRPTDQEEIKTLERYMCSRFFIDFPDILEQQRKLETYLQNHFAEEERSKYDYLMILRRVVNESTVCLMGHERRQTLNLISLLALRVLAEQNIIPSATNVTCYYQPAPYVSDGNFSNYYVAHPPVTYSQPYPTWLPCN
UniProt Q9BU02: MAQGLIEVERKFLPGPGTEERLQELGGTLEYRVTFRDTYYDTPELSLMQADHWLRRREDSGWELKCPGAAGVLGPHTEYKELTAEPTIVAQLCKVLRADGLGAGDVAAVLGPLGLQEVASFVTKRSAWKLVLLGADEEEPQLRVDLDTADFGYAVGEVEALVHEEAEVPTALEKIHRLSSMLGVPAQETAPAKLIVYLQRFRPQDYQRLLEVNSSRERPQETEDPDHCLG
UniProt Q9UDY2: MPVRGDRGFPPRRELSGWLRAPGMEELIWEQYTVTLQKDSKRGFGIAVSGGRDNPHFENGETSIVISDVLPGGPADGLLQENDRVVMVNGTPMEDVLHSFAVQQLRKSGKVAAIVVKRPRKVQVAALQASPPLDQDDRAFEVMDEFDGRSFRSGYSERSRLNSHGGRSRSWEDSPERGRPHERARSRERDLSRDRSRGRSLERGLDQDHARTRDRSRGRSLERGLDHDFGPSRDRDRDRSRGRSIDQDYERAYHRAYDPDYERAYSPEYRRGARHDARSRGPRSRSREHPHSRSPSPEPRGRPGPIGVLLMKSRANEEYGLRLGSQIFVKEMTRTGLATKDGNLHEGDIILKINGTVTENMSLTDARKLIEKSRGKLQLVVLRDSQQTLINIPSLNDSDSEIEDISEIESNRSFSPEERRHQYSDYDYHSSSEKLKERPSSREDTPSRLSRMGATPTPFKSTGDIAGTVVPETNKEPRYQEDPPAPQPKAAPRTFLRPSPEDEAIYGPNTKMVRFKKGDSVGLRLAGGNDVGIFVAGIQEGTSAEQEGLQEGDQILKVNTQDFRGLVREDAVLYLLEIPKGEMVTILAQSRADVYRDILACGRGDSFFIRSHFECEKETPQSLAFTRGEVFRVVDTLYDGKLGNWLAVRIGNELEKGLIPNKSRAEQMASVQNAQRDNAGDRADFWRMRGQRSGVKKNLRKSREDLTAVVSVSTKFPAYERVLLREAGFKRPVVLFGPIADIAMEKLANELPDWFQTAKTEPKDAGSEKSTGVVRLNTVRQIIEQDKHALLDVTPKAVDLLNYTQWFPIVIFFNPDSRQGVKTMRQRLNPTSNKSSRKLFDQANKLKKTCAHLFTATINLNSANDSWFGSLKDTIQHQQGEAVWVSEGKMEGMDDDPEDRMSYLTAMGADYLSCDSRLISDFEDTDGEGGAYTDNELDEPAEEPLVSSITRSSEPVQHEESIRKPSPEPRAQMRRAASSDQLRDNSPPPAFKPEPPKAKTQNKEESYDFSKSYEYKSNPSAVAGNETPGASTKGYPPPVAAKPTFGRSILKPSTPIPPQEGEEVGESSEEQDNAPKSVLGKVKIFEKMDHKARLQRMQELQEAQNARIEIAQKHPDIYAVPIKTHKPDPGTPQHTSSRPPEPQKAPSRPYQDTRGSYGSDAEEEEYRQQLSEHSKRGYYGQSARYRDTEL

[2] = compound: CN1CCN(c2nc(C3=C(c4c[nH]c5ccccc45)C(=O)NC3=O)c3ccccc3n2)CC1 [sotrastaurin]
In short: as §1

[3] = compound: CN1CCc2c(c3ccccc3n2Cc2ccc(C(=O)NO)cc2)C1 [Tubastatin A]
In short: as §1

[4] = compound: CNC(=O)C1=CC=CC=C1NC2=NC(=NC=C2Cl)NC3=C(C=C(C=C3)N4CCOCC4)OC
In short: as §1

[5] = compound: CNC(=O)c1ccc(Nc2ncc(C(F)(F)F)c(NCc3nccnc3N(C)S(C)(=O)=O)n2)cc1 [defactinib]
In short: as §1

[6] = compound: CNCc1ccc(-c2[nH]c3cc(F)cc4c3c2CCNC4=O)cc1 [rucaparib]
In short: as §1

[7] = compound: CNc1nc(-c2ccc3c(N)n[nH]c3c2)cc(N2C[C@@H](C(=O)NC3CCCCC3)CC[C@H]2C)n1
In short: as §1

[8] = compound: COC(=O)N[C@@H](C)CNc1nccc(-c2cn(C(C)C)nc2-c2cc(Cl)cc(NS(C)(=O)=O)c2F)n1 [encorafenib]
In short: as §1

[9] = compound: COC(=O)[C@H](CCSC)NC(=O)C1=C(C=C(C=C1)NC[C@H](CS)N)C2=CC=CC=C2
In short: as §1

[10] = compound: CN1CC[C@H](c2c(O)cc(O)c3c(=O)cc(-c4ccccc4Cl)oc23)[C@H](O)C1 [alvocidib]
In short: as §1

Measured: log2 fold change

TEX264 (UniProt Q9Y6I9)
active: [7] 0.629
inactive: [1] -0.041 | [2] -0.027 | [3] -0.077 | [4] 0.13 | [5] 0.112 | [6] 0.407 | [8] -0.039 | [9] 0.071

TCIRG1 (UniProt Q13488)
inactive: [1] -0.348 | [10] 0.144 | [3] 0.135 | [4] -0.082 | [6] 0.283 | [7] 0.152 | [8] 0.267

TFRC (UniProt P02786)
inactive: [1] 0.008 | [2] 0.005 | [3] -0.028 | [4] 0.029 | [5] -0.03 | [6] -0.003 | [7] -0.056 | [8] 0.019 | [9] -0.004

TBC1D2B (UniProt Q9UPU7)
inactive: [1] -0.275 | [2] 0.032 | [6] -0.016 | [7] -0.126 | [8] 0.02

TBC1D23 (UniProt Q9NUY8)
inactive: [1] -0.023 | [2] -0.073 | [3] 0.043 | [4] -0.027 | [5] -0.109 | [6] -0.038 | [7] -0.074 | [8] 0.079 | [9] -0.047

TIPRL (UniProt O75663)
inactive: [1] -0.028 | [2] -0.056 | [3] 0 | [4] 0.009 | [5] -0.049 | [6] 0.013 | [7] -0.001 | [8] 0.035 | [9] -0.014

TCF4 isoform 3 (UniProt P15884)
inactive: [1] 0.116 | [10] -0.142 | [3] 0.066 | [7] 0.057

TELO2 (UniProt Q9Y4R8)
inactive: [1] -0.05 | [2] -0.211 | [3] -0.004 | [4] 0.03 | [5] -0.019 | [6] 0.2 | [7] 0.145 | [8] 0.049 | [9] -0.057

TIMM10B (UniProt Q9Y5J6)
active: [4] 0.484
inactive: [1] -0.046 | [2] 0.074 | [3] 0.109 | [5] -0.074 | [6] 0.017 | [7] -0.106 | [8] -0.022 | [9] -0.117

TK1 (UniProt K7ERV3)
inactive: [1] 0.037 | [2] 0.011 | [3] -0.013 | [5] 0 | [7] -0.058 | [9] -0.003

TECR (UniProt Q9NZ01)
inactive: [1] -0.018 | [2] -0.007 | [3] -0.035 | [4] -0.07 | [5] -0.022 | [6] 0.03 | [7] -0.017 | [8] 0.045 | [9] -0.028

TIAL1 isoform 2 (UniProt Q01085)
inactive: [1] 0.015 | [2] 0.025 | [3] -0.052 | [4] -0.019 | [5] 0.077 | [6] 0.066 | [7] -0.042 | [8] -0.034 | [9] -0.014

TIMM21 (UniProt Q9BVV7)
inactive: [1] 0 | [2] -0.001 | [3] -0.048 | [4] -0.025 | [5] -0.007 | [6] -0.04 | [7] -0.016 | [8] 0.063 | [9] 0.051

TLCD3A (UniProt Q8TBR7)
inactive: [1] 0.164 | [2] 0.055 | [3] -0.036 | [5] -0.102 | [6] -0.005 | [7] -0.186 | [8] -0.053 | [9] 0.003

TIMM13 (UniProt Q9Y5L4)
inactive: [1] 0.065 | [2] -0.007 | [3] -0.007 | [4] 0.007 | [5] -0.038 | [6] -0.028 | [7] 0.043 | [8] 0.044 | [9] 0

TK1 (UniProt P04183)
inactive: [1] 0.067 | [2] 0.036 | [3] 0.034 | [4] -0.013 | [5] -0.021 | [6] -0.015 | [7] -0.003 | [8] -0.005 | [9] 0.024

TBC1D15 isoform 3 (UniProt Q8TC07)
inactive: [1] -0.01 | [2] -0.117 | [3] -0.011 | [4] -0.014 | [5] -0.09 | [6] 0.059 | [7] -0.012 | [8] 0.068 | [9] -0.003

TFAM (UniProt Q00059)
inactive: [1] -0.017 | [2] 0.052 | [3] 0.052 | [4] -0.008 | [5] 0.107 | [6] 0.042 | [7] -0.01 | [8] 0.039 | [9] 0.047

TGFBRAP1 (UniProt Q8WUH2)
inactive: [1] -0.124 | [2] 0.048 | [3] 0.134 | [4] 0.047 | [5] -0.061 | [6] 0.097 | [7] -0.051 | [8] 0.076 | [9] -0.109

TJP1 (UniProt Q07157)
inactive: [1] -0.049 | [2] -0.064 | [3] 0.045 | [4] -0.099 | [5] -0.16 | [6] 0.018 | [7] 0.003 | [8] 0.029 | [9] -0.056

TCOF1 isoform 4 (UniProt Q13428)
inactive: [1] 0.016 | [2] -0.064 | [3] 0.013 | [4] -0.006 | [5] -0.033 | [6] 0.02 | [7] -0.038 | [8] 0.002 | [9] 0.026

TBC1D5 isoform 2 (UniProt Q92609)
inactive: [1] -0.033 | [2] -0.169 | [3] -0.036 | [4] -0.013 | [5] -0.088 | [6] 0.015 | [7] -0.159 | [8] 0.119 | [9] -0.055

TIMM10 (UniProt P62072)
inactive: [1] -0.058 | [2] 0.018 | [3] -0.027 | [4] -0.015 | [5] -0.073 | [6] -0.062 | [7] 0.039 | [8] -0.013 | [9] 0.002

TGM2 (UniProt A2A299)
inactive: [1] -0.009 | [10] -0.009 | [3] 0 | [4] -0.102 | [5] 0.085 | [7] -0.19 | [9] -0.075

Quoted from above (2 entries):
TIMM10 (UniProt P62072)
inactive: [1] -0.058 | [2] 0.018 | [3] -0.027 | [4] -0.015 | [5] -0.073 | [6] -0.062 | [7] 0.039 | [8] -0.013 | [9] 0.002

TGM2 (UniProt A2A299)
inactive: [1] -0.009 | [10] -0.009 | [3] 0 | [4] -0.102 | [5] 0.085 | [7] -0.19 | [9] -0.075

The results go on.

TGFBR1 isoform 2 (UniProt P36897)
inactive: [2] 0.026 | [3] 0.023 | [4] -0.045 | [5] 0.039 | [6] 0.096 | [7] 0.041 | [8] 0.041 | [9] -0.055
active: [1] 0.371

TBC1D9B (UniProt Q66K14)
inactive: [1] -0.023 | [2] 0.077 | [3] 0.063 | [4] -0.07 | [5] -0.064 | [6] 0.009 | [7] -0.01 | [8] 0.065 | [9] 0.027

TCERG1 (UniProt O14776)
inactive: [1] -0.051 | [2] -0.086 | [3] 0.11 | [4] -0.011 | [5] -0.288 | [6] -0.003 | [7] 0.08 | [8] 0.063 | [9] -0.105

TBRG4 (UniProt Q969Z0)
inactive: [1] -0.093 | [2] -0.431 | [3] 0.044 | [4] -0.177 | [5] -0.25 | [6] 0.008 | [7] -0.144 | [8] 0.071 | [9] -0.062

TERF2IP (UniProt Q9NYB0)
inactive: [1] 0.038 | [2] -0.065 | [3] 0.128 | [4] 0.008 | [5] -0.195 | [6] -0.052 | [7] -0.016 | [8] -0.011 | [9] -0.007

TENT5C (UniProt Q5VWP2)
inactive: [1] -0.127 | [2] 0.035 | [3] 0.004 | [4] -0.133 | [5] 0.071 | [6] 0.171 | [7] -0.071 | [8] 0.094 | [9] -0.011

THTPA (UniProt Q9BU02)
inactive: [1] 0.065 | [10] -0.083 | [3] 0.156 | [4] 0.009 | [5] -0.017 | [6] -0.166 | [7] -0.158 | [8] 0.146 | [9] 0.054

TJP2 isoform 7 (UniProt Q9UDY2)
inactive: [1] -0.074 | [2] -0.151 | [3] 0.047 | [4] -0.06 | [5] -0.211 | [6] 0.051 | [7] 0.054 | [8] 0.066 | [9] -0.097

TGFBI (UniProt Q15582)
inactive: [1] 0.017 | [2] 0.171 | [3] -0.005 | [4] -0.014 | [5] -0.037 | [6] -0.06 | [7] -0.113 | [8] 0.006 | [9] 0.098

— the supplement of paper PMC10849652
